# Assay results published in publication doi:10.1101/2020.10.21.349480.
# The chains behind the UniProt entries cited, without tags or fusion partners. Where a name states a change or a piece, a line headed by the entry shows the natural chain unless it says otherwise. Residues count along the entry.
# UniProt P02452: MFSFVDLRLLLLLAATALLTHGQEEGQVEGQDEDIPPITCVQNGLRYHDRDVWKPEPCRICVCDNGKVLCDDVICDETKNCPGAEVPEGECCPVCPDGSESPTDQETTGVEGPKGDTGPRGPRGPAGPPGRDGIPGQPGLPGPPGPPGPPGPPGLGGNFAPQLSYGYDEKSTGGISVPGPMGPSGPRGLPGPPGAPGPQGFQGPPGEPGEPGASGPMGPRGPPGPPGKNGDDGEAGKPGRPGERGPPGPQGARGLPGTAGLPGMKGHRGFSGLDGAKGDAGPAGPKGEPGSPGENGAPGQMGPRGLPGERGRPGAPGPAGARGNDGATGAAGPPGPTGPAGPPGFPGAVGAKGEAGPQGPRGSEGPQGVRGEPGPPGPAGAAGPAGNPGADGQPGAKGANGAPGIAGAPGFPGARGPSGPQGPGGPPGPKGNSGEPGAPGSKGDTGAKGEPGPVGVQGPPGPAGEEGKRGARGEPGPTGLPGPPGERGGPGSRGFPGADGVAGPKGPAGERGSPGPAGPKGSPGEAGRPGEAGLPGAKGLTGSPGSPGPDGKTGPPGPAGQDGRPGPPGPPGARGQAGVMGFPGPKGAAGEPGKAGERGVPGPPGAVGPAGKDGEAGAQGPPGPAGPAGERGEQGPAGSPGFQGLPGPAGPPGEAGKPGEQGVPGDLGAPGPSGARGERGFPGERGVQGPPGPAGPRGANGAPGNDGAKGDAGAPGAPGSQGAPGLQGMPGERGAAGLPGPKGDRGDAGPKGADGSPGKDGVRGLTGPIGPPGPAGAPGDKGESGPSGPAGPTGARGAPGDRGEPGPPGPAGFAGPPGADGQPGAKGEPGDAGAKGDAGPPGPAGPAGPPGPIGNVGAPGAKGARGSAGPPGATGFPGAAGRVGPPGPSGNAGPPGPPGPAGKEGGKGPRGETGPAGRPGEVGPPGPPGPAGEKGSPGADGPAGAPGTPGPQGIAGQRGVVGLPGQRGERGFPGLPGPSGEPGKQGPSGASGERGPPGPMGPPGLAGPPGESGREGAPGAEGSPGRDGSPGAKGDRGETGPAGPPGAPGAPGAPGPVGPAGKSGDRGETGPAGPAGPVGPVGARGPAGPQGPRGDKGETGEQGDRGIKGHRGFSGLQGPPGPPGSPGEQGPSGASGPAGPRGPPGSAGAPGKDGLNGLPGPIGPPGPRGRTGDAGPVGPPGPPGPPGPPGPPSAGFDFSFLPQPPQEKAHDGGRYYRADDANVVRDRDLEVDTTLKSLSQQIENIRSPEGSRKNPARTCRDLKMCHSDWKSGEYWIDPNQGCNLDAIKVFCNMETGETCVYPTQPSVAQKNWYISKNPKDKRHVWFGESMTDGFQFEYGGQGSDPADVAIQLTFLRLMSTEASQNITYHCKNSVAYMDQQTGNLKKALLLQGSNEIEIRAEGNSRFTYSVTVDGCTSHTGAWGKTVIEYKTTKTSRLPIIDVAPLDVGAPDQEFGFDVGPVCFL
# UniProt P08123: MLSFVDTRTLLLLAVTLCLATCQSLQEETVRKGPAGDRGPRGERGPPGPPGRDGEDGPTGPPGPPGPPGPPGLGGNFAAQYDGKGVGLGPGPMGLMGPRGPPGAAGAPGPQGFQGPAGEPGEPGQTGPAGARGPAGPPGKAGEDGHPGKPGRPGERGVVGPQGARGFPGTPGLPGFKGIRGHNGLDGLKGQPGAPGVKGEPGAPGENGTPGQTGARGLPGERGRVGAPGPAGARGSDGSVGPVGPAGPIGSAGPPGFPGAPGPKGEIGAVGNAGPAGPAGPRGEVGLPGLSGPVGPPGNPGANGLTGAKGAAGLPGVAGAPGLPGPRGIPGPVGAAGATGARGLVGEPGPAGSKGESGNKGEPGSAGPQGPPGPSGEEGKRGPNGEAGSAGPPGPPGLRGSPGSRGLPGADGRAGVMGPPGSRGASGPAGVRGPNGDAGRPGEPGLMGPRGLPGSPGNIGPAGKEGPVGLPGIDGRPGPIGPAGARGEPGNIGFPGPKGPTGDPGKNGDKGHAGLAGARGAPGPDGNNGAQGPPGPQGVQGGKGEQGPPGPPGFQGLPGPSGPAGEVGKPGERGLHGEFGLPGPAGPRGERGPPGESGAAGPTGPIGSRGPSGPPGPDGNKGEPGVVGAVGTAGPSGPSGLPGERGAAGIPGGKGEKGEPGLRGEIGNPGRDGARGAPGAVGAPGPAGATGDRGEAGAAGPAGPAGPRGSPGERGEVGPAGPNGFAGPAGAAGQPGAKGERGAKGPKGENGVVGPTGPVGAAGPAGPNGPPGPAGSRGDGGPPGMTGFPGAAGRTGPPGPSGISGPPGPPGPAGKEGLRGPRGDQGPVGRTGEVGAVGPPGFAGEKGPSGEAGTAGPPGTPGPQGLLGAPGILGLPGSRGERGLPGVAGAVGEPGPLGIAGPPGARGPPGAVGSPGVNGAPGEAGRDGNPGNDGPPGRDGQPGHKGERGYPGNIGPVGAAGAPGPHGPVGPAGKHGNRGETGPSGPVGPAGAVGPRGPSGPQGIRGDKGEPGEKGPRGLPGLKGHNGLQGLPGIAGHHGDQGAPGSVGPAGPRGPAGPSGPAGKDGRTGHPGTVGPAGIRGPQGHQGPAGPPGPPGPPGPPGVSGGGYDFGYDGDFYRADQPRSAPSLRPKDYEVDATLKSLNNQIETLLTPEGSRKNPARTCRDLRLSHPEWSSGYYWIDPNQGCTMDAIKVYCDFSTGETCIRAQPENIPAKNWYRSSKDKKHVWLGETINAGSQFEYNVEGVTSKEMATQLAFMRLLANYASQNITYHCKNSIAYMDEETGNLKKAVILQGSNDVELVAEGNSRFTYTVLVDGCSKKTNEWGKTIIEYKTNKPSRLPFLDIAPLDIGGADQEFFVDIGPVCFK
# UniProt P02461, residues 154-1221: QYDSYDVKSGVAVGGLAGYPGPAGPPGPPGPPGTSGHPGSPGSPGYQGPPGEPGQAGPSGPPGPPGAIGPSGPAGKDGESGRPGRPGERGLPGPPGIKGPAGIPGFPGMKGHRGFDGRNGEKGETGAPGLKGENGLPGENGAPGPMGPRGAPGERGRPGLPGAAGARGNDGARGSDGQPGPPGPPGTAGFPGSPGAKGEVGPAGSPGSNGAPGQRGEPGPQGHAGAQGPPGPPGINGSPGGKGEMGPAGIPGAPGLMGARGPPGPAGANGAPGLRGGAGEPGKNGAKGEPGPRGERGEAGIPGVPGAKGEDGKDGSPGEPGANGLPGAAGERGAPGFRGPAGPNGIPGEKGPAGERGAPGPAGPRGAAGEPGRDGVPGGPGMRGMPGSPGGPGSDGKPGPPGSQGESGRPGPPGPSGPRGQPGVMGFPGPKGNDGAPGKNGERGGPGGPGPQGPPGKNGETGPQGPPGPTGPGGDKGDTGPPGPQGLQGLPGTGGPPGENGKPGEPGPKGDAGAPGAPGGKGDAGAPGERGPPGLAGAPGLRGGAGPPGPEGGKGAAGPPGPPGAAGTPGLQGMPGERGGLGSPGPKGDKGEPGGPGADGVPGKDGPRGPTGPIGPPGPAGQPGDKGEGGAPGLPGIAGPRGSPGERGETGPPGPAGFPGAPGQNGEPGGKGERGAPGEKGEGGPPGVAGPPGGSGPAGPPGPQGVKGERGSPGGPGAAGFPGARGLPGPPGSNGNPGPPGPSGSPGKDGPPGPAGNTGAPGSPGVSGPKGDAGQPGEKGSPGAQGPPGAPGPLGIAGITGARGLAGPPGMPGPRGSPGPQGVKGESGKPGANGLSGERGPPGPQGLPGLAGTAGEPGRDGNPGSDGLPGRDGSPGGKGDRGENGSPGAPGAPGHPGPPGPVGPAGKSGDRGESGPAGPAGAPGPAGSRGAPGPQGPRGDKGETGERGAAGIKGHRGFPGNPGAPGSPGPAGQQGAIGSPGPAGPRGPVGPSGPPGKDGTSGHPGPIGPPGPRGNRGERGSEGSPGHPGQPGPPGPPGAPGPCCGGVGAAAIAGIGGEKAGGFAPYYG
# UniProt P08121, residues 155-1219: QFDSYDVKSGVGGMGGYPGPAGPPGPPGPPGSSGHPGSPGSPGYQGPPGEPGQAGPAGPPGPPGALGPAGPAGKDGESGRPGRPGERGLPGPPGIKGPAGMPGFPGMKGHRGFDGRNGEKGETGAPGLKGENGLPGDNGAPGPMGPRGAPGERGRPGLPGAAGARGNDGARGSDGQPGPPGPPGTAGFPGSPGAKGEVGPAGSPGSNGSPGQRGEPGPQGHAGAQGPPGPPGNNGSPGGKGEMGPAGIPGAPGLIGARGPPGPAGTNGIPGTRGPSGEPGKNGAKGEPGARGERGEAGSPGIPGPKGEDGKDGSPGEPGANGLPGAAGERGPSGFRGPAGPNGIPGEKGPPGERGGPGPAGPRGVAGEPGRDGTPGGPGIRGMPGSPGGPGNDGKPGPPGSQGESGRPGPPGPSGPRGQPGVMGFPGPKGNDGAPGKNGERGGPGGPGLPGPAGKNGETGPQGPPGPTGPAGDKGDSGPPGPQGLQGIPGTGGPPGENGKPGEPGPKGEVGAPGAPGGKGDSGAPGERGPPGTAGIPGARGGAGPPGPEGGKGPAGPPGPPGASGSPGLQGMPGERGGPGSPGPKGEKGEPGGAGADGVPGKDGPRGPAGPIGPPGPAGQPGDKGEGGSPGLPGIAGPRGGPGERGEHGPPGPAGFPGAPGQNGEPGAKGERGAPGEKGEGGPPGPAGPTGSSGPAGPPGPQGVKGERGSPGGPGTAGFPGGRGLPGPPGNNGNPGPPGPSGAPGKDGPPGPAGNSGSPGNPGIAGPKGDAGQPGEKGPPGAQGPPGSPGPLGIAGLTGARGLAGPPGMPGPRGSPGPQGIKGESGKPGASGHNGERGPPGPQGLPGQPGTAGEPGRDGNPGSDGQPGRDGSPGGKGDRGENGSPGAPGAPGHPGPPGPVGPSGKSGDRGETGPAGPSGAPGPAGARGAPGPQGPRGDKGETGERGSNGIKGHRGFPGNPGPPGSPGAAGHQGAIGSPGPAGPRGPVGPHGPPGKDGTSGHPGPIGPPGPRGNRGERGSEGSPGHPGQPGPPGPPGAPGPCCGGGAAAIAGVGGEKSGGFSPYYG
# UniProt P11087: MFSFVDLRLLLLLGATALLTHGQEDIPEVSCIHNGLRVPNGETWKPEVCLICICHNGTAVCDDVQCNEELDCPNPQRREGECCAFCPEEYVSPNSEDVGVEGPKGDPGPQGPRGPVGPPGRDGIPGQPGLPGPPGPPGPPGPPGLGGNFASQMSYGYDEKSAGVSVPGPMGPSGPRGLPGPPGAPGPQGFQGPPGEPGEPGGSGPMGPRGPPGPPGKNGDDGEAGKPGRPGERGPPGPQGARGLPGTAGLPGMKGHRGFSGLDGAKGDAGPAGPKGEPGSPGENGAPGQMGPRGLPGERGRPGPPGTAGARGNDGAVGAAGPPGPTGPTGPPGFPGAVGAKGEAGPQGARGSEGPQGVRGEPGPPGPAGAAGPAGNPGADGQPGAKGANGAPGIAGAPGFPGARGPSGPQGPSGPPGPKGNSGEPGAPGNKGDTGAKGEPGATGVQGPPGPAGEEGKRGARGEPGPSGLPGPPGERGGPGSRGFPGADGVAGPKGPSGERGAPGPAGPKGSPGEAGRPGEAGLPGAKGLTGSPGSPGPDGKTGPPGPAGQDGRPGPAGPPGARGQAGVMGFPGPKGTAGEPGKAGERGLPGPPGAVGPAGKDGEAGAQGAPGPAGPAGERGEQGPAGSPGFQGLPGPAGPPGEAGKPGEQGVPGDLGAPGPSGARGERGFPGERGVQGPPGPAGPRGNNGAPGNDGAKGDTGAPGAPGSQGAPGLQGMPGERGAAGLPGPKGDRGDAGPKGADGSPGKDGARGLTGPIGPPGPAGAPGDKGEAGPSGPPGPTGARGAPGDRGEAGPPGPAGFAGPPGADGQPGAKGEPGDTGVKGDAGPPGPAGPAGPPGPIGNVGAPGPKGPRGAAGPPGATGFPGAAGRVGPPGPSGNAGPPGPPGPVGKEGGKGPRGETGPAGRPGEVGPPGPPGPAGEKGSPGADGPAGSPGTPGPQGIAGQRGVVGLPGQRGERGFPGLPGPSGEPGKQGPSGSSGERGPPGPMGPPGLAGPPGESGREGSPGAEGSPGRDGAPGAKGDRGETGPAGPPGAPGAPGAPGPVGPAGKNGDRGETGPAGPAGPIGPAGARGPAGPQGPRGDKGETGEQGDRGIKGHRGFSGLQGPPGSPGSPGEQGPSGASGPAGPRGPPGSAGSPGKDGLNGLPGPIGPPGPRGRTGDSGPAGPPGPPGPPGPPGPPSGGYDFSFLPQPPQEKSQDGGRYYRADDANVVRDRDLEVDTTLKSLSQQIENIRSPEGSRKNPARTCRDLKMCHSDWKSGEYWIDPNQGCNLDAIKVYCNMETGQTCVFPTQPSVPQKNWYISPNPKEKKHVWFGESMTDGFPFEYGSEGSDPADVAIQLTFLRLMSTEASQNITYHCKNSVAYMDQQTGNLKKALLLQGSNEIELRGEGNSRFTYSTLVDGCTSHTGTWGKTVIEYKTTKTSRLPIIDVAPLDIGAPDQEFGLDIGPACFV
# Results are given in words; binding and its absence hold for the method and conditions named. Some results given as binding are weak or reduced against the parent protein; the word gives no strength. Sequences can lack the tags named with a protein.
# T1: NC410, LAIR-2 human IgG1 Fc fusion protein (human) (UniProt Q6ISS4)
# T1 sequence: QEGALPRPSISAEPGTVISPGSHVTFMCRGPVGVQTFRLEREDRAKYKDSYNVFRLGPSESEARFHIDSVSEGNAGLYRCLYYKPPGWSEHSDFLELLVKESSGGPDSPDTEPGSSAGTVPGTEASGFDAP
# Target: T1, NC410, LAIR-2 human IgG1 Fc fusion protein (human)
# Assay: BLI
row,binding,Molecule
1,binds,human collagen I (from UniProt P02452 162-1218; P08123 80-1119)
2,binds,human collagen III (from UniProt P02461 154-1221)
3,binds,mouse collagen III (from UniProt P08121 155-1219)
4,binds,rat collagen I (from UniProt P02454 152-1207; P02466 86-1125)
5,binds,rat collagen III (from UniProt P13941 155-1218)
6,binds,mouse collagen I (from UniProt P11087 152-1207; Q01149 86-1125)

# Target: human collagen I (human) (UniProt P02452+P08123)
# Assay: time resolved fluorometry
row,binding,Molecule
1,binds,"human LAIR-1 Fc fusion protein (Fc fusion, UniProt Q6GTX8 22-165, biotin (EZ-Link NHS-PEG4-Biotin)) QEEDLPRPSISAEPGTVIPLGSHVTFVCRGPVGVQTFRLERDSRSTYNDTEDVSQASPSESEARFRIDSVREGNAGLYRCIYYKPPKWSEQSDYLELLVKESSGGPDSPDTEPGSSAGPTQRPSDNSHNEHAPASQGLKAEHLY"
